This is one part of the list.
Compound: Cc1cc(ccc1-c1ccccc1)C(=O)N1CCCN(CC1)C(=O)CCl [compound 10]
Assay: probe-labelled cysteine peptide fold change vs DMSO (competition) (log2 fold change); higher = less target engagement (more negative = stronger competition)
Details: THP-1, incubation time: 4 h
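Also: competitive profiling in live THP-1 cells: cysteine peptides tagged with an iodoacetamide desthiobiotin (IA-DTB) probe, intensity after compound treatment relative to DMSO-treated cells.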

The chains behind the UniProt entries cited, without tags or fusion partners. Where a name states a change or a piece, a line headed by the entry shows the natural chain unless it says otherwise.
UniProt Q8IV38: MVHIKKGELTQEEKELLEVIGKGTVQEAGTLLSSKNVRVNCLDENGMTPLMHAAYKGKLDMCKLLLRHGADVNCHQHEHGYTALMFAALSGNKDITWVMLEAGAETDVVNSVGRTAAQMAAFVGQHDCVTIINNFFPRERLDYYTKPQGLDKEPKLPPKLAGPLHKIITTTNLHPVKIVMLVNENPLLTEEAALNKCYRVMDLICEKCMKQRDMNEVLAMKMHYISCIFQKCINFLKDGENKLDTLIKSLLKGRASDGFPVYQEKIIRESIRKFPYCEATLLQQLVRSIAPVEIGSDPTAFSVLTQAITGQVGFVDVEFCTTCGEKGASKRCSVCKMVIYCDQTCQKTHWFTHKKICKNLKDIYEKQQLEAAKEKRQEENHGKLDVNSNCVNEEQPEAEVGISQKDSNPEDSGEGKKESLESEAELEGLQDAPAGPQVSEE
UniProt O75179: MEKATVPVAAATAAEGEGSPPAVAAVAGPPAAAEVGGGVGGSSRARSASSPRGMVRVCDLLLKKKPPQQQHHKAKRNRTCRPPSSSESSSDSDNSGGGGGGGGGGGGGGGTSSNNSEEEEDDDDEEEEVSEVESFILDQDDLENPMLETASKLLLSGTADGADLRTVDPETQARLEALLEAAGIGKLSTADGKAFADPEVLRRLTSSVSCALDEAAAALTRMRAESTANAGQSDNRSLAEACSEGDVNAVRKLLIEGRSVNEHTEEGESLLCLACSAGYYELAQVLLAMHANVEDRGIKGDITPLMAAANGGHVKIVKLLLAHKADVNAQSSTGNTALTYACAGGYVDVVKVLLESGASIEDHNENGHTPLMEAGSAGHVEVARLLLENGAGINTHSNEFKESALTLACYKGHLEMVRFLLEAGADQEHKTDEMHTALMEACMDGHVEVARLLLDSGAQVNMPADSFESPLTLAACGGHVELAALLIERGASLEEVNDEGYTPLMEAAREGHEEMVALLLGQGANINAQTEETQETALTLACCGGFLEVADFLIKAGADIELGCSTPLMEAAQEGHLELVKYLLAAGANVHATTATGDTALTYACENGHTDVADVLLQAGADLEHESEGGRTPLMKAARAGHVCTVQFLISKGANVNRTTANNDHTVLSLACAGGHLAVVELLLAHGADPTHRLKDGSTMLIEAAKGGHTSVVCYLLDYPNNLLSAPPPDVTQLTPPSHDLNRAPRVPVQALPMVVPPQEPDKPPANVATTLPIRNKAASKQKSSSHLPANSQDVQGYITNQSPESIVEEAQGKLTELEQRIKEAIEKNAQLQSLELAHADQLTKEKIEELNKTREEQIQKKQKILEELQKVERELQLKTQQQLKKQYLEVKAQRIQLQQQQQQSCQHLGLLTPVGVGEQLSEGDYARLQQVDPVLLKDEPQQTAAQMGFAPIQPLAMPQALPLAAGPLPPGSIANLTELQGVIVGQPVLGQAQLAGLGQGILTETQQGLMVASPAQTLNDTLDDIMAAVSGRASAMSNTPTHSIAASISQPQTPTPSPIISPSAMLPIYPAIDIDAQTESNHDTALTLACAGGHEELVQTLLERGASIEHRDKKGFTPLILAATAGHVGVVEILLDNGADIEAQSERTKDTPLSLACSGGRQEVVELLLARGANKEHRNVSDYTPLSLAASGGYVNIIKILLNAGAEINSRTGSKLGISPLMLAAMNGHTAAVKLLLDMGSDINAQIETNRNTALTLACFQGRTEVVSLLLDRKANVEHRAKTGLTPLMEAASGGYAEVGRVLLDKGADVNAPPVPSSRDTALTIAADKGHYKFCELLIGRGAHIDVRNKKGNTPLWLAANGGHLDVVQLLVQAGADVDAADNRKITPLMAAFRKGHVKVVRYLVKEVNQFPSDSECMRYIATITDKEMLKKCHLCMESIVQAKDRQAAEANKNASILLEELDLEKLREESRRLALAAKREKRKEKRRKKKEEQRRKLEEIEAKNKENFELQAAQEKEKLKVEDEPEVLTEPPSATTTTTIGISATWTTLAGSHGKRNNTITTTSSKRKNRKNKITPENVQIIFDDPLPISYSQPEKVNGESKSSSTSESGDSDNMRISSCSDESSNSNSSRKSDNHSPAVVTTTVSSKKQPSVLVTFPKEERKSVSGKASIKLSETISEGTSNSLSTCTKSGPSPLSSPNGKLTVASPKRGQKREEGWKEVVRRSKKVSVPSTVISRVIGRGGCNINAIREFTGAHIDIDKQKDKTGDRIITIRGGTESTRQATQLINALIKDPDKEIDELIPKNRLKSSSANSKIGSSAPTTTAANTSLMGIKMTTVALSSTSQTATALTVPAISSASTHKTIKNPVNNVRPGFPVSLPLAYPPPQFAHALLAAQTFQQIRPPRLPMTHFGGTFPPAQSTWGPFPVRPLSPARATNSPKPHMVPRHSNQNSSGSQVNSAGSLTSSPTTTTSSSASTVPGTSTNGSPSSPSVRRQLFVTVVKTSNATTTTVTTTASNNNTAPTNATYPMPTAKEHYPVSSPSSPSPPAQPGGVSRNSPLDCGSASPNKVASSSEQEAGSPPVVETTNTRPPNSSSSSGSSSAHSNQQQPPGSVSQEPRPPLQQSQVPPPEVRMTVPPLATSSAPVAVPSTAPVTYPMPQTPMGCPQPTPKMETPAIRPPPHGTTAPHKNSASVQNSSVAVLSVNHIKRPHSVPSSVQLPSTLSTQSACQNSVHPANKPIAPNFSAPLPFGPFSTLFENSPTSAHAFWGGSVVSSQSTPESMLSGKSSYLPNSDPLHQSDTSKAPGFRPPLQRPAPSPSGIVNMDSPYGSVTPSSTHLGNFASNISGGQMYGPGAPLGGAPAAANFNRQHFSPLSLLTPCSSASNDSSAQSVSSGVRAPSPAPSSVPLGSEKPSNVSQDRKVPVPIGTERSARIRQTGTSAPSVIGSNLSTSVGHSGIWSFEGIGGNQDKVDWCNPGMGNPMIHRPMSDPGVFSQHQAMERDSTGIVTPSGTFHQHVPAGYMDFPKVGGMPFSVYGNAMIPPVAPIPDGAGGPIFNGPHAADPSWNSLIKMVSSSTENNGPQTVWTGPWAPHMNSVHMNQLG
UniProt Q9Y2T2: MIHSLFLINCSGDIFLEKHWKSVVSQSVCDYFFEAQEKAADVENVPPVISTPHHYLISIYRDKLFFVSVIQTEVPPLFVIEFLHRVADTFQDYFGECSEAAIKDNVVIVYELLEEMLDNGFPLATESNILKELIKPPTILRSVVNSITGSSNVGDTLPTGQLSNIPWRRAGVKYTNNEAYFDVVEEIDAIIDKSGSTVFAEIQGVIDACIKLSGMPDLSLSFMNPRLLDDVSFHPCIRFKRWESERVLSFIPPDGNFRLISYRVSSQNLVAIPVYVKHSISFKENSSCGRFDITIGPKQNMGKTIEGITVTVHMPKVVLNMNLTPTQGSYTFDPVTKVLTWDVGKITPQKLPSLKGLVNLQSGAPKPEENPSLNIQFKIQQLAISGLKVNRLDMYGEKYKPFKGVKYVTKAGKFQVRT
UniProt Q4KMQ2: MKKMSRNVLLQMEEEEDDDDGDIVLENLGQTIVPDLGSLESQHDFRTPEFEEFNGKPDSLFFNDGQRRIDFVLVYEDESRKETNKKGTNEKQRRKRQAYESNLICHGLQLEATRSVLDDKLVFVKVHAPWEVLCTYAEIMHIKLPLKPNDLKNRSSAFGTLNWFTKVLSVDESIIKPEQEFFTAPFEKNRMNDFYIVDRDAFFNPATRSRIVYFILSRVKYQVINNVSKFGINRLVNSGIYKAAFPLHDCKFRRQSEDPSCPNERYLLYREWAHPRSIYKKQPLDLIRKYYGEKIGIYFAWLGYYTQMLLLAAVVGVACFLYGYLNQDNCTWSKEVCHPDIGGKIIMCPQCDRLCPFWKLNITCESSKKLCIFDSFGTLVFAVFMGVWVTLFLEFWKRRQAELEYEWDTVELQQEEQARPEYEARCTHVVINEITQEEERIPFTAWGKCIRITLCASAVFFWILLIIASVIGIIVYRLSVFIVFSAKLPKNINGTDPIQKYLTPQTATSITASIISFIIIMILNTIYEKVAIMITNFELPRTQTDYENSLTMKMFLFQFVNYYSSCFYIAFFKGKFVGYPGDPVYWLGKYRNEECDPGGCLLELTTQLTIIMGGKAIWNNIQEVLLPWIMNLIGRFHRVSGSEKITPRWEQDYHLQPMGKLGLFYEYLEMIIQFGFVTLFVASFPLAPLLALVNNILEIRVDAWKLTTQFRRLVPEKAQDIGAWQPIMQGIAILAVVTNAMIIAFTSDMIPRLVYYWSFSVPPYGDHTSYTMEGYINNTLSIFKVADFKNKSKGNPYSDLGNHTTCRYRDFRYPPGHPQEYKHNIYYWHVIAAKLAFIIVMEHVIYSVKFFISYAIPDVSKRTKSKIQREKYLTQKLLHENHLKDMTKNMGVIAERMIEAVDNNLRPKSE
UniProt Q9BXS5: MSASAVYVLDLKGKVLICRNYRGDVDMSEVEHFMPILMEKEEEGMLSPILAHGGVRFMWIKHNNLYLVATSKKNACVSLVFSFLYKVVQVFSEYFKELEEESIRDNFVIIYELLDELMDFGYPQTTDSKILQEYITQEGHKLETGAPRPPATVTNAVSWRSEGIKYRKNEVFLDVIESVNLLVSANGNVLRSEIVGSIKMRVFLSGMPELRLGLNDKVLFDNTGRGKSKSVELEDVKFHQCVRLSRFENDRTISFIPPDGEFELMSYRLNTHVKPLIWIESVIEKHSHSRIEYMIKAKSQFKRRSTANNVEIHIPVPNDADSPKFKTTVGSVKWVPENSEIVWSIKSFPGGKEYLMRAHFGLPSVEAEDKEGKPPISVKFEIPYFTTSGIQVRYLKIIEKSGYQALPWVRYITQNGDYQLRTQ
UniProt Q9UH17: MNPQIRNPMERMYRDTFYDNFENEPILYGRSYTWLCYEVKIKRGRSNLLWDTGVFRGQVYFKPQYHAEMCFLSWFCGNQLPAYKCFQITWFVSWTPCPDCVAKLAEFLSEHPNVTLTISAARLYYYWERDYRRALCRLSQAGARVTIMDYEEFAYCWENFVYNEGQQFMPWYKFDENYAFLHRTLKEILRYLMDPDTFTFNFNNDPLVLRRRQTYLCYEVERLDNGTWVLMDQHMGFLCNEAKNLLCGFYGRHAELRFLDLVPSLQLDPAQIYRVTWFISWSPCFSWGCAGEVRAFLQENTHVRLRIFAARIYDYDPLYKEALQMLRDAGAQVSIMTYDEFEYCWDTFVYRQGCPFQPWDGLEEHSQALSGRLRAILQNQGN
UniProt Q8N8A2: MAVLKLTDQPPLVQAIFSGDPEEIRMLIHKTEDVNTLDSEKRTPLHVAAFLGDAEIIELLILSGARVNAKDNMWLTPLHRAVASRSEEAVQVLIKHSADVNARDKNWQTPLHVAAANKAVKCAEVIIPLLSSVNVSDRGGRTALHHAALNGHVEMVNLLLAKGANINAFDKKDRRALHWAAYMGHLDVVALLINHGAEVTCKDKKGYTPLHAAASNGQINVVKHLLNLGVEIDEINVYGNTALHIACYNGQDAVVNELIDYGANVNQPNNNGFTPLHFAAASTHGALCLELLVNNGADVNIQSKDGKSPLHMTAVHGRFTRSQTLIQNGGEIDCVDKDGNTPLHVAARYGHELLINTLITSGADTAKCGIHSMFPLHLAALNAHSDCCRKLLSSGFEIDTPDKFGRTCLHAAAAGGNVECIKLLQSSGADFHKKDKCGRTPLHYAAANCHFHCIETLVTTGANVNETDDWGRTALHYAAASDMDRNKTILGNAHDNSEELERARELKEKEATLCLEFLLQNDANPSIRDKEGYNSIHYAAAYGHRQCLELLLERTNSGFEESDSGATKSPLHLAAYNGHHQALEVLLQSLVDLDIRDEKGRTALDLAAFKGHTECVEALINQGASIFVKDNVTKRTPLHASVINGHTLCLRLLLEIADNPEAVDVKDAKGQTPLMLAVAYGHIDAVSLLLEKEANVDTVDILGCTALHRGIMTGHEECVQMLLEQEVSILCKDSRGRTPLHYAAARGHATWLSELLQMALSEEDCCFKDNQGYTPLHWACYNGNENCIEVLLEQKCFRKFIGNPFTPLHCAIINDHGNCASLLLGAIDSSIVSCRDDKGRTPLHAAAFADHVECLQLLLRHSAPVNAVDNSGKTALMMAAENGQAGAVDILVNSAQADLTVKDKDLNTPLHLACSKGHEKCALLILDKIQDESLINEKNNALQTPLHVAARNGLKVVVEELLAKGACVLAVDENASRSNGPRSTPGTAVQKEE
UniProt P27695, whole entry, looked up: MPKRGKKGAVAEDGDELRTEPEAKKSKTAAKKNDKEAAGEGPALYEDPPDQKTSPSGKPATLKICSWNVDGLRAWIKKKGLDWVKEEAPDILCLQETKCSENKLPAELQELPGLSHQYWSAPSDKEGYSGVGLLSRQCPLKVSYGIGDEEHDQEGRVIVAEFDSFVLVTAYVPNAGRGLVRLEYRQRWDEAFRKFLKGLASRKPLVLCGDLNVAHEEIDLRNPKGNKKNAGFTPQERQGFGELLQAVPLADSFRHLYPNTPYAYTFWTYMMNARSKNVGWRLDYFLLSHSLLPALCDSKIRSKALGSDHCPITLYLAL

Row | Target | probe-labelled cysteine peptide fold change (10 µM) | probe-labelled cysteine peptide fold change (50 µM)
1 | ANKMY2_Q8IV38_227_MHYISCIFQK (UniProt Q8IV38) | -0.211 | 0.55
2 | ANKRD17_O75179_442_TDEMHTALMEACMDGHVEVAR (UniProt O75179) | 0.144 | 0.279
3 | AP3M1_Q9Y2T2_10_MIHSLFLINCSGDIFLEK (UniProt Q9Y2T2) | 0.166 | 0.0677
4 | APOBR_Q0VD83_844_VEAEESAGAEDSCGLDPAGSQTAR (UniProt Q0VD83) | -0.0157 | -0.0217
5 | ANO6_Q4KMQ2_426_CTHVVINEITQEEERIPFTAWGK (UniProt Q4KMQ2) | -0.386 | -0.657
6 | AP1M1_Q9BXS5_241_FHQCVR (UniProt Q9BXS5) | -0.0973 | 0.247
7 | APOBEC3B_Q9UH17_354_QGCPFQPWDGLEEHSQALSGR (UniProt Q9UH17) | -0.00779 | 0.0282
8 | ANKRD44_Q8N8A2_368_CGIHSMFPLHLAALNAHSDCCR (UniProt Q8N8A2) | 0.15 | 0.229
9 | AP3D1_O14617_1089_ICFHHHFSVVER (UniProt O14617) | 0.239 | 0.176
10 | ANXA5_P08758_316_ALLLLCGEDD (UniProt P08758) | -0.0286 | 0.0276
11 | AP2B1_P63010_565_PLISEETDLIEPTLLDELICHIGSLASVYHKPPNAFVEGSHGIHR (UniProt P63010) | 0.119 | -0.142
12 | APEX1_P27695_208_KPLVLCGDLNVAHEEIDLR (UniProt P27695) | 0.00931 | 0.154
13 | ANKHD1_Q8IWZ3_873_DTVSLHQQCSHR (UniProt Q8IWZ3) | 0.0706 | -0.169

Reformatted as tab-separated lines: part of the list above
Row	Target	probe-labelled cysteine peptide fold change (10 µM)	probe-labelled cysteine peptide fold change (50 µM)
5	ANO6_Q4KMQ2_426_CTHVVINEITQEEERIPFTAWGK (UniProt Q4KMQ2)	-0.386	-0.657
7	APOBEC3B_Q9UH17_354_QGCPFQPWDGLEEHSQALSGR (UniProt Q9UH17)	-0.00779	0.0282
8	ANKRD44_Q8N8A2_368_CGIHSMFPLHLAALNAHSDCCR (UniProt Q8N8A2)	0.15	0.229

Reference: the supplement of paper PMC12067093, “Discovery and optimisation of a covalent ligand for TRIM25 and its application to targeted protein ubiquitination” (Chemical Science, 2025)
